This is an account of results in patent publication US6528481B1, “NG2/HM proteoglycan-binding peptides that home to angiogenic vasculature and related methods” (The Burnam Institute, priority 1999, dated 2003).

Sequences of proteins named here, by UniProt entry; tags and fusion partners are left off. Residues count along the entry.
UniProt Q00657, residues 30-1465: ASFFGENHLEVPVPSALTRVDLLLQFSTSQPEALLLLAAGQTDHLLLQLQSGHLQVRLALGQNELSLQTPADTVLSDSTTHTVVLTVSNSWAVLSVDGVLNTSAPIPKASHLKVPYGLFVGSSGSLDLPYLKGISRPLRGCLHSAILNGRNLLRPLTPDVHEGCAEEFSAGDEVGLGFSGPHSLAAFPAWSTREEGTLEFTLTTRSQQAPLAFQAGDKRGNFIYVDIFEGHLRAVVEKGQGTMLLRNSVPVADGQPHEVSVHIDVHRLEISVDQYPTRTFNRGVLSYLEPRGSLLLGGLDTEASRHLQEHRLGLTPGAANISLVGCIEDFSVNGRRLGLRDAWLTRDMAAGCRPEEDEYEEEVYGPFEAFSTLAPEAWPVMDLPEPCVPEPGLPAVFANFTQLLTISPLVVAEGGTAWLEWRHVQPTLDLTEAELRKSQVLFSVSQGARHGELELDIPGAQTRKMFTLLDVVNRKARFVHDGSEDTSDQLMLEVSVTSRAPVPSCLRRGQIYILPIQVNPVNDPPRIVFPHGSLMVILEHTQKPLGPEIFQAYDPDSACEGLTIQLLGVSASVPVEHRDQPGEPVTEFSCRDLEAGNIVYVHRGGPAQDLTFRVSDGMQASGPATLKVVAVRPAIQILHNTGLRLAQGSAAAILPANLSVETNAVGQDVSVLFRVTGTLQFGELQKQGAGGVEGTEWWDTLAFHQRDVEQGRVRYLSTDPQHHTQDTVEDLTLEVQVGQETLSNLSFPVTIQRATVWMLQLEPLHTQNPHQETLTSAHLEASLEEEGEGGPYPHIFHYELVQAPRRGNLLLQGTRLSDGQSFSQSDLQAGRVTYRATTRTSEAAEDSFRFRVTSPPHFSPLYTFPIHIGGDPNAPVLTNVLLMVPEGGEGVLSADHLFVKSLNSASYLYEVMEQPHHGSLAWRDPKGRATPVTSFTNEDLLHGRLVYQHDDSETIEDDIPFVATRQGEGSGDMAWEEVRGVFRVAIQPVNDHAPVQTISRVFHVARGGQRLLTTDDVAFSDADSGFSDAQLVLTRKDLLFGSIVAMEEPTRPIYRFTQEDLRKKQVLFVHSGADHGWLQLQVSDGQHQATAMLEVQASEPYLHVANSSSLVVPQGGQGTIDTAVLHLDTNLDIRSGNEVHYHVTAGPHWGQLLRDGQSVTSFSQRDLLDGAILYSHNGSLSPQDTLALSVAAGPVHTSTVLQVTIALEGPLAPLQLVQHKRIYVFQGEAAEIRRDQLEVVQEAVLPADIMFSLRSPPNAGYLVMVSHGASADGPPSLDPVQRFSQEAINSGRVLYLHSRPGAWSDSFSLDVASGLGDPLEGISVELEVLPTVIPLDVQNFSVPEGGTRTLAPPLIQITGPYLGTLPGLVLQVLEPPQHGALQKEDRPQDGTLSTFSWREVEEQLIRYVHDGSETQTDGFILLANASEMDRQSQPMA

These are yes or no findings as the source states them, for the method shown. Some entries that bind do so weakly or less than the wild type. For some assays here: Sequences can lack the tags named with a protein.

For assay [1], the target named is recombinant fragment of rat NG2 consisting of the N-terminal two-thirds of the extracellular domain (NG2EC delta 3) (rat) (UniProt Q00657). Briefly: phage panning on NG2-coated wells, round III; table 'Selection of NG2-binding Phage'.
For assay [2] the target is unchanged. Briefly: competition: soluble GST fusion against …-phage on NG2-coated wells.
The target is the same in assay [3]. Briefly: solid-phase assay: soluble NG2 fragment on GST-fusion-coated wells, anti-NG2 polyclonal and 125I anti-rabbit IgG.
For assay [4] the target is unchanged. Briefly: conclusion of the GST-peptide fusion assays (Example III).
For assay [5] the target is unchanged. As to the kind of experiment: competition: soluble GST fusion against …-phage on NG2-coated wells. This is another data set of the same source.
The target is the same in assay [6]. As to the kind of experiment: phage panning on NG2-coated wells.
Assay [7] shares this target. Briefly: phage binding and soluble NG2 competition on NG2-coated wells.
Assay [8] shares this target. As to the kind of experiment: phage panning on NG2-coated wells, round V; table 'Selection of NG2-binding Phage'; number of clones in parentheses.
Assay [9] shares this target. As to the kind of experiment: phage binding to NG2-coated wells competed by increasing soluble NG2 fragment.
Assay [10] has the same target. As to the kind of experiment: purified phage on NG2-coated microtiter wells, bound phage counted as colonies.
Assay [11] shares this target. As to the kind of experiment: phage panning on NG2-coated wells, round IV; table 'Selection of NG2-binding Phage'; number of clones in parentheses.
Assay [12] has the same target. Briefly: phage panning on NG2-coated wells, round III; table 'Selection of NG2-binding Phage'; number of clones in parentheses.

As for MVWSKGPLFL (peptide, not shown: large carriers) [phage displaying … (SEQ ID NO: 10)], the binding result in [1] was “binds”.

SAERGVVAMS (peptide, not shown: large carriers) [phage displaying … (SEQ ID NO: 7)]: the binding entry in assay [1] is “binds”.

As for AGQTLTASGD (peptide, not shown: large carriers) [phage displaying … (SEQ ID NO: 5)], in assay [1], the binding entry is on record as “binds”.

On to LTLRWVGLMS (peptide, not shown: a dimerising Fc or GST), for which the binding entry in assay [2], in assay [3], in assay [4] and in [5] was “binds” throughout.

Regarding DAHVLVPRTP (peptide, not shown: large carriers) [phage displaying … (SEQ ID NO: 13)], in assay [1], the binding result is reported as “binds”.

In the case of TAASGVRSMH (peptide, not shown: large carriers), the binding entry in [1], in assay [6], in assay [7], in [8], in assay [9] and in [10] was “binds” throughout. The binding result in [11] is given as “binds”.

As for WGKIEDPLRA (peptide, not shown: large carriers) [phage displaying … (SEQ ID NO: 4)], in [1], the binding entry was “binds”.

Take LSPLLSPATA (peptide, not shown: large carriers) [phage displaying … (SEQ ID NO: 15)]: the binding result in assay [1] is given as “binds”.

On to TAASGVRSMH (peptide, not shown: a dimerising Fc or GST), for which the binding entry in assay [2], in assay [3], in [4] and in assay [5] was “binds” each time.

As for AQGIVLQLAL (peptide, not shown: large carriers) [phage displaying … (SEQ ID NO: 14)], the binding result in assay [1] is reported as “binds”.

As for DLLAVSWLRA (peptide, not shown: large carriers) [phage displaying … (SEQ ID NO: 6)], in assay [1], the binding result is listed as “binds”.

Turning to FWTERAGWAY (peptide, not shown: large carriers) [phage displaying … (SEQ ID NO: 9)], the binding result in assay [1] is listed as “binds”.

Take AIHSELMWVS (peptide, not shown: large carriers) [phage displaying … (SEQ ID NO: 8)]: the binding entry in [1] is on record as “binds”.

For GGGTRAGMKY (peptide, not shown: large carriers) [phage displaying … (SEQ ID NO: 3)], the binding entry in assay [12] is listed as “binds”.

Turning to AGTRMSWEVL (peptide, not shown: large carriers) [phage displaying … (SEQ ID NO: 11)], the binding result in [1] is “binds”.

As for VSRSSRWGSI (peptide, not shown: large carriers) [phage displaying … (SEQ ID NO: 12)], the binding result in [1] is reported as “binds”.

As for LTLRWVGLMS (peptide, not shown: large carriers), the binding entry in assay [1], in assay [6], in assay [7], in assay [8], in assay [9] and in assay [10] was “binds” throughout. In addition, the binding entry in assay [11] was “binds”.
